According to the supplement of paper PMC5407854, “Inhibitor of ppGalNAc-T3-mediated O-glycosylation blocks cancer cell invasiveness and lowers FGF23 levels” (eLife, 2017):
The other results are listed elsewhere or left out. Most values lie at the level of the controls, where differences are scatter.

Tests used:
[1] = system: ppGalNAc-T3 sensor; experiment: T3 sensor activation Q score (MG/GFP ratio z-score vs DMSO controls) (SD units); higher = more sensor activation (inhibition of ppGalNAc-T3 glycosylation); conditions: HEK293 sensor cells; 10 µM; 6 h
Description: (§1)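 Cells were treated with compound at 10 uM for 6 h, then MG/GFP ratio was read by flow cytometry (10,000 cells per well, duplicate wells). Q = (R - R_neg)/SD_neg relative to DMSO vehicle controls; the signal rises when the glycosyltransferase is inhibited.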

[2] = system: ppGalNAc-T2 sensor; experiment: T2 sensor activation Q score (MG/GFP ratio z-score vs DMSO controls) (SD units); higher = more sensor activation (inhibition of ppGalNAc-T2 glycosylation); conditions: HEK293 sensor cells; 10 µM; 6 h
Description: as §1

SMILES | T3 sensor activation Q score [1] | T2 sensor activation Q score [2]
COc1ccc(CN2CCN(C/C=C/c3ccccc3)CC2)cc1OC | -0.775 | -0.405
O=S(=O)(Nc1ccccn1)c1ccc(Cl)cc1 | -0.405 | -0.63
O=C1NC(c2ccc(Br)cc2)C(=C(O)c2ccccc2)C1=O (centres undefined) | 0.46 | -0.18
Cc1cc(C)n(-c2cc(-n3cccn3)ncn2)n1 | -0.73 | 2.03
Cc1ccc(NC(=O)CCC(=O)O)cc1F | -0.025 | -0.9
O=C(Nc1ccccc1)Oc1c(Cl)cc(Cl)cc1Br | 0 | 0.795
OC(C#Cc1ccccc1)c1cccs1 (centres undefined) | 0.045 | 0.46
CC1C(C(=O)O)CC(C(=O)O)C1(C)C (centres undefined) | 0 | 0.96
CCCCc1c(C(=O)O)cc(C)cc1C(=O)O | 2 | 1.46
O=C(NC(Cc1ccc(O)cc1)C(=O)O)c1ccccc1 (centres undefined) | -0.005 | -1
CN(C)c1ccc(C2C(=C(O)c3ccccc3)C(=O)C(=O)N2C)cc1 (centres undefined) | 0.26 | -0.38
CC(=O)Nc1cc2nc3ccccc3nc2cc1NC(C)=O | -0.65 | -0.475
COc1cc(C)c(CN2CCN(Cc3ccc4c(c3)OCO4)CC2)cc1C | 0.125 | 1.08
Fc1ccc(CN2CCN(Cc3ccc4c(c3)OCO4)CC2)cc1F | 0.095 | -0.75
CCC(CC)NS(=O)(=O)c1cccc(C(=O)O)c1 | 1.15 | -0.14
COc1ccc(N2CCN(Cc3ccc(Br)s3)CC2)cc1 | 0.025 | -0.01
O=C(CSc1nc2ccccc2s1)c1ccccc1 | -0.015 | 0.465
CC(Oc1cccc(Cl)c1)C(=O)NN (centres undefined) | 2.25 | 0.21
COc1c2ccoc2nc2c(OC)cccc12 | 0.06 | 0.155
Cn1c(/C=C/c2ccccc2)cc[n+]1C | -0.22 | -0.2
Cc1ccc(N2C(=O)CC(N3CCN(c4ccc(F)cc4)CC3)C2=O)c(C)c1 (centres undefined) | -0.295 | -0.035
CCN(CCN(C)C)Cc1cccc(C)c1 | 1.01 | -0.59
Cc1ccc(-c2nnc(-c3ccccc3Cl)o2)cc1 | -0.105 | 0.07
Cc1cccc(C(=O)Nc2ccccc2C(N)=O)c1 | -0.16 | -0.185
Nc1cc(S(=O)(=O)c2ccc(Cl)cc2)ccc1Cl | 1.2 | -0.37
COc1ccc(S(=O)(=O)Nc2cc(C)ccc2C)cc1 | -0.14 | -0.06

2 compounds picked at random from the list so far, as already listed:
SMILES | T3 sensor activation Q score [1] | T2 sensor activation Q score [2]
CC(=O)Nc1cc2nc3ccccc3nc2cc1NC(C)=O | -0.65 | -0.475
Cc1ccc(N2C(=O)CC(N3CCN(c4ccc(F)cc4)CC3)C2=O)c(C)c1 (centres undefined) | -0.295 | -0.035

Later entries

SMILES | T3 sensor activation Q score [1] | T2 sensor activation Q score [2]
CC1(C)CC(CC(=O)NN)(c2ccccc2)CCO1 (centres undefined) | 0.13 | -0.135
CCN(CCN(C)C)Cc1ccc(F)cc1 | 0.6 | -0.055
CC(C)NCC(O)COc1ccc(C(C)(C)C)cc1 (centres undefined) | -0.335 | -0.005
Nc1nnc(Cc2ccccc2)s1 | 1.17 | -0.075
O=C(Nc1ccc(I)cc1)c1ccco1 | 0.285 | 0.02
COc1ccc(CC(=O)NCc2ccccc2)cc1 | 0.35 | -0.485
CC1(C)CC(=O)C2=C(C1)Nc1ccccc1NC2c1ccc(Cl)cc1 (centres undefined) | -0.385 | -0.8
O=C(Nc1ccncc1)c1ccccc1F | -0.565 | 0.32
COc1cccc(NC2=C(N3CCCC3)C(=O)c3ccccc3C2=O)c1 | -0.135 | -0.835
CC(=O)Nc1cc2c(cc1C(=O)c1ccccc1Cl)OCCO2 | 0.5 | -1.47
O=C(NCC(F)(F)C(F)F)c1ccncc1 | 0.51 | 0.265
CCN(CC)S(=O)(=O)c1cc(C(=O)O)ccc1Cl | 0.785 | -0.975
c1cncc(-c2nc3c4c5c(sc4ncn3n2)CCCC5)c1 | -0.65 | 2.09
Cc1cccc(NC(=O)c2ccco2)c1 | -1.01 | -1.61
O=S(=O)(Cc1ccccc1)N1CCN(c2cccc(Cl)c2)CC1 | 0.63 | -0.33
Cc1ccc2c(S(=O)(=O)O)ccc(O)c2n1 | 0.5 | -1.05
Cc1ccc(N2Cc3ccccc3C2=O)cc1 | 0.6 | -0.68
Clc1ccc(CN2CCc3ccccc3C2)cc1Cl | 0.405 | 0.44
CSc1cccc(NC(=O)C2CCN(C(=O)Cc3ccccc3)CC2)c1 | -0.365 | -0.49
NC(=O)C1CCCN(Cc2ccc(F)cc2)C1 (centres undefined) | 0.505 | -0.6
O=S(=O)(Nc1cc(Cl)c(O)c(Br)c1)c1ccc(Cl)cc1 | -0.385 | -1.78
O=C(O)C1CC=CC[C@@H]1Cc1ccccc1 (some centres undefined) | 0.035 | -0.51
Cc1cccc(C(=O)c2cn[nH]c2-c2ccc(C)cc2O)c1 | -0.08 | -0.725
Fc1ccc(CN2CCN(c3ncccn3)CC2)c(F)c1 | 0.48 | 0.7
CC(=O)C1=C(O)C(=O)N(CCO)C1c1ccc(F)cc1 (centres undefined) | 0.29 | -0.51
COc1cc(NS(=O)(=O)c2ccc(NC(C)=O)cc2)c(OC)cc1Cl | -0.16 | -0.13
